Assay: general procedure: solution-phase peptide synthesis; DCC/DMAP; FDPP (macrolactamization)
Conditions: late stage modification step

With Cryptophycin 52 as the substance, how does the step yield read?
Its step yield is 48%.

With Cryptophycin 53 as the substance, how does the step yield read?
Its step yield is 25%.

With Cryptophycin 55 as the substance, how does the step yield read?
Its step yield is 48%.

For Cryptophycin 56, which step yield is on record?
Its step yield is 44% yield.

With Cryptophycin 61 as the substance, how does the step yield read?
Its step yield is 37%.

— patent US6013626A (priority 1995, dated 2000)
